No constants are given. Whether binding was seen depends on the method and setting. Binding seen in cells or lysates may run through a third protein. Some entries that bind do so weakly or less than the wild type.
Tests used:
[1] = target: EGFP- and MycFlag-tagged BRD2, wild type (mouse) (UniProt Q7JJ13); assay: co-IP; EGFP- and MycFlag-tagged BRD2 constructs expressed in 293T cells, immunoprecipitated with GFP-Trap agarose beads; Western blot for BRD2 and NIPBL
[2] = target: BRD2 (mouse (endogenous in CH12F3-2A)) (UniProt Q7JJ13); assay: co-IP; nuclear extracts from CIT-activated CH12F3-2A cells immunoprecipitated with BRD2 or BRD4 antibodies or control rabbit IgG (Dynabeads Protein G); Western blot of the precipitated proteins

Amino acid sequences for entries named in this document (tags omitted).
UniProt Q7JJ13: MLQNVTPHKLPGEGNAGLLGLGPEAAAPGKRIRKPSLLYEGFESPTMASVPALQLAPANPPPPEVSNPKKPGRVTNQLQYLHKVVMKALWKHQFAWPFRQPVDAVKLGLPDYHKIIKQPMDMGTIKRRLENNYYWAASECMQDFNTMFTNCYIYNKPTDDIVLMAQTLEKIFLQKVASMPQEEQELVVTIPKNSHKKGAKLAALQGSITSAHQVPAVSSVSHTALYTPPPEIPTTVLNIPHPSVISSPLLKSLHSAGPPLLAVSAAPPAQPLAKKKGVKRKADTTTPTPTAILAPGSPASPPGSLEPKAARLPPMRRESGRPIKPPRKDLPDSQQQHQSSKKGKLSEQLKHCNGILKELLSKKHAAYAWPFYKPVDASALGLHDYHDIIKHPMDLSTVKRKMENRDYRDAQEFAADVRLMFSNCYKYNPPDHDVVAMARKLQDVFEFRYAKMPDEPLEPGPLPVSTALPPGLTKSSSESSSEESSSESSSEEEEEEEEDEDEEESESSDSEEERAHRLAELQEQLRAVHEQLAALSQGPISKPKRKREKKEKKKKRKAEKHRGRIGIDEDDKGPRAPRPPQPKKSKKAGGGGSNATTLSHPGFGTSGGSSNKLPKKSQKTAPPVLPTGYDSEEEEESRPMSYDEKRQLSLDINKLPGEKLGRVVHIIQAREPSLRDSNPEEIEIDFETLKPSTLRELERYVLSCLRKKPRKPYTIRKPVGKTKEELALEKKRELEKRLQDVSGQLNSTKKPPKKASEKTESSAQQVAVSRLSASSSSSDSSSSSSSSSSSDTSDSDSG
UniProt Q6KC79: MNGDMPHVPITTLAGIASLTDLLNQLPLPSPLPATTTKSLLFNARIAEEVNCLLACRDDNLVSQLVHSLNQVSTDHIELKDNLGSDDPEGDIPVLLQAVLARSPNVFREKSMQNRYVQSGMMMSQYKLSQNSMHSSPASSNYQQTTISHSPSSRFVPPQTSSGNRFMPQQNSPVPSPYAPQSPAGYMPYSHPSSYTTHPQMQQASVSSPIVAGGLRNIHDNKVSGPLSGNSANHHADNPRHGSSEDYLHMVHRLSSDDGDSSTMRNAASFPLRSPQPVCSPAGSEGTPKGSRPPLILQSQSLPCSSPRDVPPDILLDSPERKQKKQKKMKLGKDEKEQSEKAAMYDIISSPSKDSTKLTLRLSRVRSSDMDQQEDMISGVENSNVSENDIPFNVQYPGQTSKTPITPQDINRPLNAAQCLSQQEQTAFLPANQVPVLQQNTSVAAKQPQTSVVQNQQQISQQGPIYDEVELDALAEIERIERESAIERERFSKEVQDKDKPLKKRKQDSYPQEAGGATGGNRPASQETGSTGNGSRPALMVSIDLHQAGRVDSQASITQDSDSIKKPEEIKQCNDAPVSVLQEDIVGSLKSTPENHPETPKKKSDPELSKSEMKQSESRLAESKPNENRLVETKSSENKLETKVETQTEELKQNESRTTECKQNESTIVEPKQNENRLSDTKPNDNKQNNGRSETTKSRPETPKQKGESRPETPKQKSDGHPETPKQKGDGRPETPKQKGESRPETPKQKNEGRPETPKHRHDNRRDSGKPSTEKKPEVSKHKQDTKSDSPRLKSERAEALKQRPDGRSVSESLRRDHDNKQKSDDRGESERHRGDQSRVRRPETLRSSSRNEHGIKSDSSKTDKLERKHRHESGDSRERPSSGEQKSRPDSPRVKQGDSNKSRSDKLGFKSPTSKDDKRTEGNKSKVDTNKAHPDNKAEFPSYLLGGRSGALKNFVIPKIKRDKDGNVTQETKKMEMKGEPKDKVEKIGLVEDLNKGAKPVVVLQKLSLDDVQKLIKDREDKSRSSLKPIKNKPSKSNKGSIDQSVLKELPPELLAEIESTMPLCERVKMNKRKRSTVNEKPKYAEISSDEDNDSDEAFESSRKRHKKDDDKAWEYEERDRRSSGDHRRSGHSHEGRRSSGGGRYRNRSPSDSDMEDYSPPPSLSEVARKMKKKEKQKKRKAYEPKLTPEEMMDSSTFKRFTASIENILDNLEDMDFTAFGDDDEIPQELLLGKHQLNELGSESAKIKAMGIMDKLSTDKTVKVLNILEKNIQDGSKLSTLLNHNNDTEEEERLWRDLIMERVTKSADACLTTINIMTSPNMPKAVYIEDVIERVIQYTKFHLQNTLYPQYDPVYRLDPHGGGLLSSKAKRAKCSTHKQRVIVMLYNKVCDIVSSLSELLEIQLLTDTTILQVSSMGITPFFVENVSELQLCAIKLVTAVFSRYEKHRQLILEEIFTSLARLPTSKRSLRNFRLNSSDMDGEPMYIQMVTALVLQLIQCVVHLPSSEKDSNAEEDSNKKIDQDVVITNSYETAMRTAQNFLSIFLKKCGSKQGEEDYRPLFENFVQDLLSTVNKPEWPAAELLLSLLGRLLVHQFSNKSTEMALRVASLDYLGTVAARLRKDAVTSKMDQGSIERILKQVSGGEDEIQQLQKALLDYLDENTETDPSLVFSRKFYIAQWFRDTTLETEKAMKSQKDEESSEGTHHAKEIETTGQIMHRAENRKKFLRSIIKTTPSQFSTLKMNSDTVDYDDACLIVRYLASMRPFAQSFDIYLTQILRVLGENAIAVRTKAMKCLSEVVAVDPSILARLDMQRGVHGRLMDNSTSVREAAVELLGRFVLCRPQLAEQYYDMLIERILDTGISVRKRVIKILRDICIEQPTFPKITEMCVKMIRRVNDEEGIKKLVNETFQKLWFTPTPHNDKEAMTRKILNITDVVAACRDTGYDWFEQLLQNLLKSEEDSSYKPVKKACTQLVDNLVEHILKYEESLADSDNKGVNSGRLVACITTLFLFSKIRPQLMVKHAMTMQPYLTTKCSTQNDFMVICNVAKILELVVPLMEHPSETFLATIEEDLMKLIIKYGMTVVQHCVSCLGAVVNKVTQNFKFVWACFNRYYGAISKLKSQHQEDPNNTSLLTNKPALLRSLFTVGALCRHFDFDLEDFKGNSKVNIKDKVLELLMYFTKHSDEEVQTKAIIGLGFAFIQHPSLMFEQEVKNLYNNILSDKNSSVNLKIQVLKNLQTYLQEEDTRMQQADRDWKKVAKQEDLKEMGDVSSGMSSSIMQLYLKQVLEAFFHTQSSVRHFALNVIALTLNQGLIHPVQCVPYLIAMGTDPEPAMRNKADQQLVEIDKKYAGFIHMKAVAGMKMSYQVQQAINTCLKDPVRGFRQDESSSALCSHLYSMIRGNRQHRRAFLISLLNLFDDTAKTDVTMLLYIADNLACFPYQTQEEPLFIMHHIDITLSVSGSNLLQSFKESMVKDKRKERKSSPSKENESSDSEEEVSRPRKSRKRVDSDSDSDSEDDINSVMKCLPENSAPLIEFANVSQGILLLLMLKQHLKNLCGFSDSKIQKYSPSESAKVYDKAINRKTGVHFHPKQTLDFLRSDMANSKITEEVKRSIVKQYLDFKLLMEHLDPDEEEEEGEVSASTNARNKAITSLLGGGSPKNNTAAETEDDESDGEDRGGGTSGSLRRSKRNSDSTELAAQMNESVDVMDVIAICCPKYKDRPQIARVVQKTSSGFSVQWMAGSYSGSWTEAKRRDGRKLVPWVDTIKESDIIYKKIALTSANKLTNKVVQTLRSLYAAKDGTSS
UniProt Q6KCD5: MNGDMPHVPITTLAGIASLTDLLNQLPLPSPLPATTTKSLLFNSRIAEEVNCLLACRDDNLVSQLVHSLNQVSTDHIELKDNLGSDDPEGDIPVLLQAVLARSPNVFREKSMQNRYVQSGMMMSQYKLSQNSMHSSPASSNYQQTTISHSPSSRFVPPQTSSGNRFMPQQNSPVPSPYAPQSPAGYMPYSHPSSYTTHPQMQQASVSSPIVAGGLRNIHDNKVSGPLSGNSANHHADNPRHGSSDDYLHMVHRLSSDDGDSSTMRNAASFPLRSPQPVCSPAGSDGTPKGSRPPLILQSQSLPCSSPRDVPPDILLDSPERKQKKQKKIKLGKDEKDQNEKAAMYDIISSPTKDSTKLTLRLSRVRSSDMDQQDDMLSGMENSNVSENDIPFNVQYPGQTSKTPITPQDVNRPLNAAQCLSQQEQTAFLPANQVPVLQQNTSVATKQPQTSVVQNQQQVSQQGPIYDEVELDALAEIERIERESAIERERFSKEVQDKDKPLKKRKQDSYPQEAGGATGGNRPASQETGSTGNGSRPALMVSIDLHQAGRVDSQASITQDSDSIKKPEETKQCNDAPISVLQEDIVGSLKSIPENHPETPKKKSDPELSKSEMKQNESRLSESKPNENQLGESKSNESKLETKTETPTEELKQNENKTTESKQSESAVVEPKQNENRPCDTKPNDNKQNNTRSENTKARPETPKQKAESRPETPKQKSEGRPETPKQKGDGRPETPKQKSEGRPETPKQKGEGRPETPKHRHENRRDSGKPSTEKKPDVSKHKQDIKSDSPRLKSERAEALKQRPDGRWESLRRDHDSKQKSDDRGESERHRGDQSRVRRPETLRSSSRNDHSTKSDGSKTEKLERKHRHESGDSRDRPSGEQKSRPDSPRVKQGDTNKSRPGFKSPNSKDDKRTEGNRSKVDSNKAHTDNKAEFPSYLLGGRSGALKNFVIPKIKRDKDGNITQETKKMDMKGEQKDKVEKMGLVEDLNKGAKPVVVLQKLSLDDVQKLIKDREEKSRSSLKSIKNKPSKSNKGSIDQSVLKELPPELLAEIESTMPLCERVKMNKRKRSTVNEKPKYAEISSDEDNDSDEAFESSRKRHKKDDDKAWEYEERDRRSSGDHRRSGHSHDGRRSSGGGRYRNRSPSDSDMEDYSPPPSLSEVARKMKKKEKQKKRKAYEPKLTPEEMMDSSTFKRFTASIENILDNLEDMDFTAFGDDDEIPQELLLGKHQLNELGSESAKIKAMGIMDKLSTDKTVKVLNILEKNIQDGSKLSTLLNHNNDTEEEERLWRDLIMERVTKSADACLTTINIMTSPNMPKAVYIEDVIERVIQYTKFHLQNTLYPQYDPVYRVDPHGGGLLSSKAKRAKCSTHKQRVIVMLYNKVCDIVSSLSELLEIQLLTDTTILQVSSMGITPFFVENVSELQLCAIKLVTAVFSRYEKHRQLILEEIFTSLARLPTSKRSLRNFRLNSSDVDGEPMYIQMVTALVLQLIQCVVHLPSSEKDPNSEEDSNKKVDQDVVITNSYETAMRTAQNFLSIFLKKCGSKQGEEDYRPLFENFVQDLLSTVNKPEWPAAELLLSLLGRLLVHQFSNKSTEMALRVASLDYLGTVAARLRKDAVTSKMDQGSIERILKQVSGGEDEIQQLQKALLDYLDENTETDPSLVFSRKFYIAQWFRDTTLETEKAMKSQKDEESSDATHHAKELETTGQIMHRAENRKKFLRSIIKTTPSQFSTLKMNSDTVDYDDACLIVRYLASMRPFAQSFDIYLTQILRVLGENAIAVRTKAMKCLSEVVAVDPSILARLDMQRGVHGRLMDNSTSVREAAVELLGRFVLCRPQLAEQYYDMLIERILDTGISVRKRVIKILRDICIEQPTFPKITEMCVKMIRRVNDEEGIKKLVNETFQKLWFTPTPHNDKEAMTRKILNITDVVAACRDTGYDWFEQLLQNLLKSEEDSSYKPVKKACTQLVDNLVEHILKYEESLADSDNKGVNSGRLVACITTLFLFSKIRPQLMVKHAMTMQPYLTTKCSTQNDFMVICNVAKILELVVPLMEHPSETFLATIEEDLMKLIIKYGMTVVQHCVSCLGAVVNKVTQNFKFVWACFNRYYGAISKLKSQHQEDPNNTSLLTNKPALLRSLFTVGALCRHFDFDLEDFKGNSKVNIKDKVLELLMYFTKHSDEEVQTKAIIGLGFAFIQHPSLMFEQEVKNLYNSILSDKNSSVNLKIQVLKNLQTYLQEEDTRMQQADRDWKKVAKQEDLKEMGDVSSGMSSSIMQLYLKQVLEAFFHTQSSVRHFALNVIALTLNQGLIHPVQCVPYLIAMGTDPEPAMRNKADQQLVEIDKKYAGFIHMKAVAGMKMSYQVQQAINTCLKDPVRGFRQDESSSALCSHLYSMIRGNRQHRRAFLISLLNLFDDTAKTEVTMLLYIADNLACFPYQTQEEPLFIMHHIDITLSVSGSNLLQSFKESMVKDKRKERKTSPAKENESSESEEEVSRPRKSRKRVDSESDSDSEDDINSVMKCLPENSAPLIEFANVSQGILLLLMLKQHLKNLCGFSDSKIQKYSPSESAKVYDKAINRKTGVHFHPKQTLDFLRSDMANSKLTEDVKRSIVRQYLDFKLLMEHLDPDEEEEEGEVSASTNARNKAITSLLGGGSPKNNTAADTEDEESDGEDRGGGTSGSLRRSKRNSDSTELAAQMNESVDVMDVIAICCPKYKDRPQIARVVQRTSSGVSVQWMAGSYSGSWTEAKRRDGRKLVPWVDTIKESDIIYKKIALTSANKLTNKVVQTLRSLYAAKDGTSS

## NIPBL (endogenous in 293T) (from UniProt Q6KC79 1-2804)
[1]
  binding: binds

## NIPBL (mouse, endogenous in CH12F3-2A) (from UniProt Q6KCD5 1-2798)
[2]
  binding: binds
